These are yes or no findings as the source states them, for the method shown. For some of these results: Binding seen in cells or lysates may run through a third protein. Some entries that bind do so weakly or less than the wild type. Sequences can lack the tags named with a protein.
What was measured:
[1] = biological target: T1, MBP-CTCF (zinc fingers 1-11, aa 269-579) (UniProt P49711); experiment: pull-down; MBP-CTCF (or MBP) immobilised on amylose beads, incubated with purified N-terminally Flag-tagged CSB, CSB-N or CSB-C at 4°C for 1 hour in PBS with 0.5% Triton X-100 and 10 μM ZnSO4; Coomassie-stained gel; both purified
T1 sequence: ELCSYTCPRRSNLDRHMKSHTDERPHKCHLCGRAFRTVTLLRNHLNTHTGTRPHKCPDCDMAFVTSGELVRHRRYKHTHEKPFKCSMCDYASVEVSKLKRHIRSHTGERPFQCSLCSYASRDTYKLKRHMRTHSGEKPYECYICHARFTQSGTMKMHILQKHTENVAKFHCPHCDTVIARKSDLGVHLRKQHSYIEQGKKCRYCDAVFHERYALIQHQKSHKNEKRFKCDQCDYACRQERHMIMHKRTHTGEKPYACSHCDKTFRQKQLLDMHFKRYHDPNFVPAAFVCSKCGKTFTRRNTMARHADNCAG

The chains behind the UniProt entries cited, without tags or fusion partners. Where a name states a change or a piece, a line headed by the entry shows the natural chain unless it says otherwise.
UniProt Q03468: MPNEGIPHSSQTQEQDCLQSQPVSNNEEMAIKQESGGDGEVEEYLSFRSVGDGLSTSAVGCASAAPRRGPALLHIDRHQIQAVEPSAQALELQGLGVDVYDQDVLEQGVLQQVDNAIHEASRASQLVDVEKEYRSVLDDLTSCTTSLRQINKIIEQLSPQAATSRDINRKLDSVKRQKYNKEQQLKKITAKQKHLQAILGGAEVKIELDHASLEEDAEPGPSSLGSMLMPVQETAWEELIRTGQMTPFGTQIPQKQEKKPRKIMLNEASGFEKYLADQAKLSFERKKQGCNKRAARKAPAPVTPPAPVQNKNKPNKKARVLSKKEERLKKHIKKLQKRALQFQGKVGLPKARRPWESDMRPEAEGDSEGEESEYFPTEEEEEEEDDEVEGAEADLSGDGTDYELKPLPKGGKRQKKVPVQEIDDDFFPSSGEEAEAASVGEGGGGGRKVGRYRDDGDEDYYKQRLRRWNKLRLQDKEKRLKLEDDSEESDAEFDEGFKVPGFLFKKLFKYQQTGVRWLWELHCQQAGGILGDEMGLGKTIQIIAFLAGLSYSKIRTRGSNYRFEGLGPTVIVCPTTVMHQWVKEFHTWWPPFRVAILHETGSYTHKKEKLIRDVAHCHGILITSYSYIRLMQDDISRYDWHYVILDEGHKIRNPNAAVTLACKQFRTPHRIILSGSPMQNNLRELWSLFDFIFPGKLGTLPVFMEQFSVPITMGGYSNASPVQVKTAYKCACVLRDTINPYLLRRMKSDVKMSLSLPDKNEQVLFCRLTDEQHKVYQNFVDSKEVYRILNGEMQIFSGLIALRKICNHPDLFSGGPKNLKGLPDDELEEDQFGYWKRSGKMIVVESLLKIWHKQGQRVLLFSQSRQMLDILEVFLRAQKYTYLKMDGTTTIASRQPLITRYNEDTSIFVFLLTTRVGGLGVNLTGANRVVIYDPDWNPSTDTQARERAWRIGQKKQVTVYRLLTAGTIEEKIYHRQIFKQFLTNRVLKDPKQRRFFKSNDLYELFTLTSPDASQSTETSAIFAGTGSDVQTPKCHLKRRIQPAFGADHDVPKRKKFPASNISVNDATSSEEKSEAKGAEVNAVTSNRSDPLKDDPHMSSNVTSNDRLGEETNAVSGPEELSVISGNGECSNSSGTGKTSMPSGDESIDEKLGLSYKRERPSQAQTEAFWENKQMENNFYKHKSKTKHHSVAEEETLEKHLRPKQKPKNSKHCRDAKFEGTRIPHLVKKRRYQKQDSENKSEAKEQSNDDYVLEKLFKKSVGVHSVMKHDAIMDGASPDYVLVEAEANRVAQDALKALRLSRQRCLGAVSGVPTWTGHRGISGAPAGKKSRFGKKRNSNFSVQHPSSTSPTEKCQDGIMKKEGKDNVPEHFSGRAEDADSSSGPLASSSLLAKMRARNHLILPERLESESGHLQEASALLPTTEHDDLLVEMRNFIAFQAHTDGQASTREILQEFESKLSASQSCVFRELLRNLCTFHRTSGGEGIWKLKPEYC

Flag-tagged CTCF = biological target: T2, Flag-tagged CTCF (UniProt P49711); experiment: co-IP; anti-Flag immunoprecipitation from lysates of 293T cells transiently transfected with Flag-tagged CTCF, with or without a 1-h treatment with 100 μM menadione; western blot for CSB
T2 sequence: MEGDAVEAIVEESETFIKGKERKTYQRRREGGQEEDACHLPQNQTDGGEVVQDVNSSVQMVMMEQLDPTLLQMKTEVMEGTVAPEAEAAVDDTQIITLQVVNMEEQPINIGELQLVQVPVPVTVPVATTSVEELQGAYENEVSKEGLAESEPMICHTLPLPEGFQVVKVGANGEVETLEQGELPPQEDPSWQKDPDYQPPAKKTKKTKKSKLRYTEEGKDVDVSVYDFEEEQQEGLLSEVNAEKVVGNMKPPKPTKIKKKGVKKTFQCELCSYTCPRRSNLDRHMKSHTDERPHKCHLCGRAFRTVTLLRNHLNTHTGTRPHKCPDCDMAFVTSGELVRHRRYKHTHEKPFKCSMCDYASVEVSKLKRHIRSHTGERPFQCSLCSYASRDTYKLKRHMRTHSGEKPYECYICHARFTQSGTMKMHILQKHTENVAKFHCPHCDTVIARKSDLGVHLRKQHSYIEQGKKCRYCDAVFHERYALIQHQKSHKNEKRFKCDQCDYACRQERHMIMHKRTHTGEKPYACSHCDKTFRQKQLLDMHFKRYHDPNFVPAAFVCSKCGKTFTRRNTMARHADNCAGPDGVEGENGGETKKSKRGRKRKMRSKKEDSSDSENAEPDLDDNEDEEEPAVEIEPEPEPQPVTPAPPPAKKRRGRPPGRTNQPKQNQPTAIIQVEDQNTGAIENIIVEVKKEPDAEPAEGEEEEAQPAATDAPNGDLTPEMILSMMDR

binding [1]	binding (Flag-tagged CTCF)	Substance
binds	–	CSB-C (C-terminal 483 amino acids of CSB) (from UniProt Q03468 1011-1493) (domain or fragment)
no binding	–	CSB-N (first 507 amino acids of CSB) (from UniProt Q03468 1-507) (domain or fragment)
binds	–	Flag-tagged CSB (from UniProt Q03468 1-1493)
–	binds	Cockayne syndrome group B protein (CSB) (from UniProt Q03468 1-1493)
